# Reference: publication PMC5788269
# T1: Ref2, TAPS-tagged (native CPF/APT subunit) (yeast) (UniProt P42073)
# T1 sequence: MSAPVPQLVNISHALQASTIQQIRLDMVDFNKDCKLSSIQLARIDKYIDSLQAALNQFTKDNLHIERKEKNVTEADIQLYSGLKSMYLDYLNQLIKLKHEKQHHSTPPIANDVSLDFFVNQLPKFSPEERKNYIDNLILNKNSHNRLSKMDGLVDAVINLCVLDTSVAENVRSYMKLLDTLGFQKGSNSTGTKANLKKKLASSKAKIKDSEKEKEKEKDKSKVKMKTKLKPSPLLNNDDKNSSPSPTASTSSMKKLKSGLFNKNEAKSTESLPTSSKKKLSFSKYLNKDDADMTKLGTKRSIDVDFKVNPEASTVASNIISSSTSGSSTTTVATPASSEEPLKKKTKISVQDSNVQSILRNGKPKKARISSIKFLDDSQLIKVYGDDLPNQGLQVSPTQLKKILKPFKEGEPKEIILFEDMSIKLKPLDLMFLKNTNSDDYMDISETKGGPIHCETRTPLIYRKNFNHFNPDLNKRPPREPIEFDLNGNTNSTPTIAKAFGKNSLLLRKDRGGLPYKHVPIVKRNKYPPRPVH
# Target: T1, Ref2, TAPS-tagged (native CPF/APT subunit) (yeast)
# Assay: affinity purification with mass spectrometry; native CPF/APT purified by a tandem affinity purification tag from a yeast strain containing TAPS-tagged Ref2; Coomassie SDS-PAGE; composition analysed by noncovalent nanoESI-MS
row,Binder,binding
1,"Mpe1 (native CPF subunit) (protein, UniProt P35728 1-441) MSSTIFYRFKSQRNTSRILFDGTGLTVFDLKREIIQENKLGDGTDFQLKIYNPDTEEEYDDDAFVIPRSTSVIVKRSPAIKSFSVHSRLKGNVGAAALGNATRYVTGRPRVLQKRQHTATTTANVSGTTEEERIASMFATQENQWEQTQEEMSAATPVFFKSQTNKNSAQENEGPPPPGYMCYRCGGRDHWIKNCPTNSDPNFEGKRIRRTTGIPKKFLKSIEIDPETMTPEEMAQRKIMITDEGKFVVQVEDKQSWEDYQRKRENRQIDGDETIWRKGHFKDLPDDLKCPLTGGLLRQPVKTSKCCNIDFSKEALENALVESDFVCPNCETRDILLDSLVPDQDKEKEVETFLKKQEELHGSSKDGNQPETKKMKLMDPTGTAGLNNNTSLPTSVNNGGTPVPPVPLPFGIPPFPMFPMPFMPPTATITNPHQADASPKK",binds
2,"Fip1 (native CPF subunit) (protein, UniProt P45976 1-327) MSSSEDEDDKFLYGSDSELALPSSKRSRDDEADAGASSNPDIVKRQKFDSPVEETPATARDDRSDEDIYSDSSDDDSDSDLEVIISLGPDPTRLDAKLLDSYSTAATSSSKDVISVATDVSNTITKTSDERLITEGEANQGVTATTVKATESDGNVPKAMTGSIDLDKEGIFDSVGITTIDPEVLKEKPWRQPGANLSDYFNYGFNEFTWMEYLHRQEKLQQDYNPRRILMGLLSLQQQGKLNSANDTDSNLGNIIDNNNNVNNANMSNLNSNMGNSMSGTPNPPAPPMHPSFPPLPMFGSFPPFPMPGMMPPMNQQPNQNQNQNSK",binds
3,"Cft1 (native CPF subunit) (protein, UniProt Q06632 1-1357) MNVYDDVLDATVVSHSLATHFTTSDYEELLVVRTNILSVYRPTRDGKLYLTDEFKFHGLITDIGLIPQKDSPLSCLLLCTGVAKISILKFNTLTNSIDTLSLHYYEGKFKGKSLVELAKISTLRMDPGSSCALLFNNDIIAFLPFHVNKNDDDEEEEDEDENIDDSELIHSMNQKSQGTNTFNKRKRTKLGDKFTAPSVVLVASELYEGAKNIIDIQFLKNFTKPTIALLYQPKLVWAGNTTISKLPTQYVILTLNIQPAESATKIESTTIAFVKELPWDLHTIVPVSNGAIIVGTNELAFLDNTGVLQSTVLLNSFADKELQKTKIINNSSLEIMFREKNTTSIWIPSSKSKNGGSNNDETLLLMDLKSNIYYIQMEAEGRLLIKFDIFKLPIVNDLLKENSNPKCITRLNATNSNKNMDLFIGFGSGNALVLRLNNLKSTIETREAHNPSSGTNSLMDINDDDDEEMDDLYADEAPENGLTTNDSKGTVETVQPFDIELLSSLRNVGPITSLTVGKVSSIDDVVKGLPNPNKNEYSLVATSGNGSGSHLTVIQTSVQPEIELALKFISITQIWNLKIKGRDRYLITTDSTKSRSDIYESDNNFKLHKGGRLRRDATTVYISMFGEEKRIIQVTTNHLYLYDTHFRRLTTIKFDYEVIHVSVMDPYILVTVSRGDIKIFELEEKNKRKLLKVDLPEILNEMVITSGLILKSNMCNEFLIGLSKSQEEQLLFTFVTADNQIIFFTKDHNDRIFQLNGVDQLNESLYISTYQLGDEIVPDPSIKQVMINKLGHDNKEEYLTILTFGGEIYQYRKLPQRRSRFYRNVTRNDLAITGAPDNAYAKGVSSIERIMHYFPDYNGYSVIFVTGSVPYILIKEDDSTPKIFKFGNIPLVSVTPWSERSVMCVDDIKNARVYTLTTDNMYYGNKLPLKQIKISNVLDDYKTLQKLVYHERAQLFLVSYCKRVPYEALGEDGEKVIGYDENVPHAEGFQSGILLINPKSWKVIDKIDFPKNSVVNEMRSSMIQINSKTKRKREYIIAGVANATTEDTPPTGAFHIYDVIEVVPEPGKPDTNYKLKEIFQEEVSGTVSTVCEVSGRFMISQSQKVLVRDIQEDNSVIPVAFLDIPVFVTDSKSFGNLLIIGDAMQGFQFIGFDAEPYRMISLGRSMSKFQTMSLEFLVNGGDMYFAATDADRNVHVLKYAPDEPNSLSGQRLVHCSSFTLHSTNSCMMLLPRNEEFGSPQVPSFQNVGGQVDGSVFKIVPLSEEKYRRLYVIQQQIIDRELQLGGLNPRMERLANDFYQMGHSMRPMLDFNVIRRFCGLAIDRRKSIAQKAGRHAHFEAWRDIINIEFSMRSLCQGK",binds
4,"Pfs2 (native CPF subunit) (protein, UniProt P42841 1-465) MDGHNQNQYQNQNQIQQSQQPPLKKYVTQRRSVDVSSPYINLYYNRRHGLPNLVVEPETSYTIDIMPPNAYRGRDRVINLPSKFTHLSSNKVKHVIPAIQWTPEGRRLVVATYSGEFSLWNASSFTFETLMQAHDSAVTTMKYSHDSDWMISGDADGMIKIWQPNFSMVKEIDAAHTESIRDMAFSSNDSKFVTCSDDNILKIWNFSNGKQERVLSGHHWDVKSCDWHPEMGLIASASKDNLVKLWDPRSGNCISSILKFKHTVLKTRFQPTKGNLLMAISKDKSCRVFDIRYSMKELMCVRDETDYMTLEWHPINESMFTLACYDGSLKHFDLLQNLNEPILTIPYAHDKCITSLSYNPVGHIFATAAKDRTIRFWTRARPIDPNAYDDPTYNNKKINGWFFGINNDINAVREKSEFGAAPPPPATLEPHALPNMNGFINKKPRQEIPGIDSNIKSSTLPGLSI",binds
5,"Cft2 (native CPF subunit) (protein, UniProt Q12102 1-859) MTYKYNCCDDGSGTTVGSVVRFDNVTLLIDPGWNPSKVSYEQCIKYWEKVIPEIDVIILSQPTIECLGAHSLLYYNFTSHFISRIQVYATLPVINLGRVSTIDSYASAGVIGPYDTNKLDLEDIEISFDHIVPLKYSQLVDLRSRYDGLTLLAYNAGVCPGGSIWCISTYSEKLVYAKRWNHTRDNILNAASILDATGKPLSTLMRPSAIITTLDRFGSSQPFKKRSKIFKDTLKKGLSSDGSVIIPVDMSGKFLDLFTQVHELLFESTKINAHTQVPVLILSYARGRTLTYAKSMLEWLSPSLLKTWENRNNTSPFEIGSRIKIIAPNELSKYPGSKICFVSEVGALINEVIIKVGNSEKTTLILTKPSFECASSLDKILEIVEQDERNWKTFPEDGKSFLCDNYISIDTIKEEPLSKEETEAFKVQLKEKKRDRNKKILLVKRESKKLANGNAIIDDTNGERAMRNQDILVENVNGVPPIDHIMGGDEDDDEEEENDNLLNLLKDNSEKSAAKKNTEVPVDIIIQPSAASKHKMFPFNPAKIKKDDYGTVVDFTMFLPDDSDNVNQNSRKRPLKDGAKTTSPVNEEDNKNEEEDGYNMSDPISKRSKHRASRYSGFSGTGEAENFDNLDYLKIDKTLSKRTISTVNVQLKCSVVILNLQSLVDQRSASIIWPSLKSRKIVLSAPKQIQNEEITAKLIKKNIEVVNMPLNKIVEFSTTIKTLDISIDSNLDNLLKWQRISDSYTVATVVGRLVKESLPQVNNHQKTASRSKLVLKPLHGSSRSHKTGALSIGDVRLAQLKKLLTEKNYIAEFKGEGTLVINEKVAVRKINDAETIIDGTPSELFDTVKKLVTDMLAKI",binds

# Second part, the binder after the results:
row,binding,Binder
1,binds,"Yth1 (native CPF subunit) (protein, UniProt Q06102 1-208) MSLIHPDTAKYPFKFEPFLRQEYSFSLDPDRPICEFYNSREGPKSCPRGPLCPKKHVLPIFQNKIVCRHWLRGLCKKNDQCEYLHEYNLRKMPECVFFSKNGYCTQSPDCQYLHIDPASKIPKCENYEMGFCPLGSSCPRRHIKKVFCQRYMTGFCPLGKDECDMEHPQFIIPDEGSKLRIKRDDEINTRKMDEEKERRLNAIINGEV"
2,binds,"Pta1 (native CPF/APT subunit) (protein, UniProt Q01329 1-785) MSSAEMEQLLQAKTLAMHNNPTEMLPKVLETTASMYHNGNLSKLKLPLAKFFTQLVLDVVSMDSPIANTERPFIAAQYLPLLLAMAQSTADVLVYKNIVLIMCASYPLVLDLVAKTSNQEMFDQLCMLKKFVLSHWRTAYPLRATVDDETDVEQWLAQIDQNIGVKLATIKFISEVVLSQTKSPSGNEINSSTIPDNHPVLNKPALESEAKRLLDMLLNYLIEEQYMVSSVFIGIINSLSFVIKRRPQTTIRILSGLLRFNVDAKFPLEGKSDLNYKLSKRFVERAYKNFVQFGLKNQIITKSLSSGSGSSIYSKLTKISQTLHVIGEETKSKGILNFDPSKGNSKKTLSRQDKLKYISLWKRQLSALLSTLGVSTKTPTPVSAPATGSSTENMLDQLKILQKYTLNKASHQGNTFFNNSPKPISNTYSSVYSLMNSSNSNQDVTQLPNDILIKLSTEAILQMDSTKLITGLSIVASRYTDLMNTYINSVPSSSSSKRKSDDDDDGNDNEEVGNDGPTANSKKIKMETEPLAEEPEEPEDDDRMQKMLQEEESAQEISGDANKSTSAIKEIAPPFEPDSLTQDEKLKYLSKLTKKLFELSGRQDTTRAKSSSSSSILLDDDDSSSWLHVLIRLVTRGIEAQEASDLIREELLGFFIQDFEQRVSLIIEWLNEEWFFQTSLHQDPSNYKKWSLRVLESLGPFLENKHRRFFIRLMSELPSLQSDHLEALKPICLDPARSSLGFQTLKFLIMFRPPVQDTVRDLLHQLKQEDEGLHKQCDSLLDRLK"
3,binds,"Ysh1 (native CPF subunit) (enzyme, UniProt Q06224 1-779) MERTNTTTFKFFSLGGSNEVGRSCHILQYKGKTVMLDAGIHPAYQGLASLPFYDEFDLSKVDILLISHFHLDHAASLPYVMQRTNFQGRVFMTHPTKAIYRWLLRDFVRVTSIGSSSSSMGTKDEGLFSDEDLVDSFDKIETVDYHSTVDVNGIKFTAFHAGHVLGAAMFQIEIAGLRVLFTGDYSREVDRHLNSAEVPPLSSNVLIVESTFGTATHEPRLNRERKLTQLIHSTVMRGGRVLLPVFALGRAQEIMLILDEYWSQHADELGGGQVPIFYASNLAKKCMSVFQTYVNMMNDDIRKKFRDSQTNPFIFKNISYLRNLEDFQDFGPSVMLASPGMLQSGLSRDLLERWCPEDKNLVLITGYSIEGTMAKFIMLEPDTIPSINNPEITIPRRCQVEEISFAAHVDFQENLEFIEKISAPNIILVHGEANPMGRLKSALLSNFASLKGTDNEVHVFNPRNCVEVDLEFQGVKVAKAVGNIVNEIYKEENVEIKEEIAAKIEPIKEENEDNLDSQAEKGLVDEEEHKDIVVSGILVSDDKNFELDFLSLSDLREHHPDLSTTILRERQSVRVNCKKELIYWHILQMFGEAEVLQDDDRVTNQEPKVKEESKDNLTNTGKLILQIMGDIKLTIVNTLAVVEWTQDLMNDTVADSIIAILMNVDSAPASVKLSSHSCDDHDHNNVQSNAQGKIDEVERVKQISRLFKEQFGDCFTLFLNKDEYASNKEETITGVVTIGKSTAKIDFNNMKILECNSNPLKGRVESLLNIGGNLVTPLC"

# Results are given in words; binding and its absence hold for the method and conditions named. Binding seen in cells or lysates may run through a third protein. Here binding means that the protein was enriched with, or labelled near, the bait; the list need not be complete. Sequences can lack the tags named with a protein.
